Experimental data published in the supplement of paper PMC10849652.
Some of the results follow.

Chains of the proteins cited; added tags and fusions are not shown. Lines headed by an entry give the natural chain unless they say otherwise; changes in a name come on top.
UniProt Q9Y478: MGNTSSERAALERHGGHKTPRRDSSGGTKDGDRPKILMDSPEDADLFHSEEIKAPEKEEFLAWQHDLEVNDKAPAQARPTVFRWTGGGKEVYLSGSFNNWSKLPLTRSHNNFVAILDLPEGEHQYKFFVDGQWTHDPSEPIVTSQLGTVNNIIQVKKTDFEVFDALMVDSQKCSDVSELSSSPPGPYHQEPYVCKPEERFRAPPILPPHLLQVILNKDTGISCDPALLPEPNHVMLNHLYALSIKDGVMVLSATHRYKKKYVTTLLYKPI
UniProt Q9NR22, whole entry, looked up: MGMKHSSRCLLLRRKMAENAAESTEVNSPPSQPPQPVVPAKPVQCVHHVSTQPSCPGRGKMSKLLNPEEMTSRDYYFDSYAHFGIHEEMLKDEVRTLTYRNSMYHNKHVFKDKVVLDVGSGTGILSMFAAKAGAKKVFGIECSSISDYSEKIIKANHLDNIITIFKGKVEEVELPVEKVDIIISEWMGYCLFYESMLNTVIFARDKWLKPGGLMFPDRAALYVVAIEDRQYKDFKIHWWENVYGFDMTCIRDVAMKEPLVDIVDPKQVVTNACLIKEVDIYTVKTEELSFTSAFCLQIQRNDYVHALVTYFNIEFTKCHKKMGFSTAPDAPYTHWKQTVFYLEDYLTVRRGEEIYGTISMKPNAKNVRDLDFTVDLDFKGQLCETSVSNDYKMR
UniProt P41743, whole entry, looked up: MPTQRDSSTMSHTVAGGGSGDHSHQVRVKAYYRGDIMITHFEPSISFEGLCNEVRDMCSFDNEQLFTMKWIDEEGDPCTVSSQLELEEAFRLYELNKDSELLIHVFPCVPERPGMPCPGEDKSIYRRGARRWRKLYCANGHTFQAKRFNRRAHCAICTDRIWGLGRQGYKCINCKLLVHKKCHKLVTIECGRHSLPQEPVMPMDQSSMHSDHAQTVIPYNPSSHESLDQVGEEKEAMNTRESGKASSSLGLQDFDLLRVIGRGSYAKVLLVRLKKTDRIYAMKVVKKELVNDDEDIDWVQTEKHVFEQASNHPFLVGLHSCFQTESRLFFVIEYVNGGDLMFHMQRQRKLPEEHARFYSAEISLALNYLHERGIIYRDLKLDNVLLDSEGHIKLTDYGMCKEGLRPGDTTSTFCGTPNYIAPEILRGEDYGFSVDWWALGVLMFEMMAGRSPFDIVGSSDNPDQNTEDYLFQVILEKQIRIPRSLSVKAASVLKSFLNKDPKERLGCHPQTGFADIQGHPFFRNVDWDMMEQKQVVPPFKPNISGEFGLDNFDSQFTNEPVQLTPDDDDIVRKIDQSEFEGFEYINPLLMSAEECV
UniProt Q9UNN8: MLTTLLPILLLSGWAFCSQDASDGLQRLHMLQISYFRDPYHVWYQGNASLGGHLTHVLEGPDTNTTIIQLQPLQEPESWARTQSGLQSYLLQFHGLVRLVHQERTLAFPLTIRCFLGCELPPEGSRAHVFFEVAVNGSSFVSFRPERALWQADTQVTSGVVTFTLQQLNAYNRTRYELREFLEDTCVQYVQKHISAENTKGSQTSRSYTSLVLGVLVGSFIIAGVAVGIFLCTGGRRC
UniProt P31321, whole entry, looked up: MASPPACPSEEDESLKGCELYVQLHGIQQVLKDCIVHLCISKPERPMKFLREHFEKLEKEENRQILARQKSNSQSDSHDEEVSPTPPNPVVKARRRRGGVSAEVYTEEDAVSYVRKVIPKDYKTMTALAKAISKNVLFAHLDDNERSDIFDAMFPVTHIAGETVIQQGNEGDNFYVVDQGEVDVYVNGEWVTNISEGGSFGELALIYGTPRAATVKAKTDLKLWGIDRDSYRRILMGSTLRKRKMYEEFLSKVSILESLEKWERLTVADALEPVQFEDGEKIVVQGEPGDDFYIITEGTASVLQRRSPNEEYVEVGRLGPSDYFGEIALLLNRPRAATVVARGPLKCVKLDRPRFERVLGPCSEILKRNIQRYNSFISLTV
UniProt O60678: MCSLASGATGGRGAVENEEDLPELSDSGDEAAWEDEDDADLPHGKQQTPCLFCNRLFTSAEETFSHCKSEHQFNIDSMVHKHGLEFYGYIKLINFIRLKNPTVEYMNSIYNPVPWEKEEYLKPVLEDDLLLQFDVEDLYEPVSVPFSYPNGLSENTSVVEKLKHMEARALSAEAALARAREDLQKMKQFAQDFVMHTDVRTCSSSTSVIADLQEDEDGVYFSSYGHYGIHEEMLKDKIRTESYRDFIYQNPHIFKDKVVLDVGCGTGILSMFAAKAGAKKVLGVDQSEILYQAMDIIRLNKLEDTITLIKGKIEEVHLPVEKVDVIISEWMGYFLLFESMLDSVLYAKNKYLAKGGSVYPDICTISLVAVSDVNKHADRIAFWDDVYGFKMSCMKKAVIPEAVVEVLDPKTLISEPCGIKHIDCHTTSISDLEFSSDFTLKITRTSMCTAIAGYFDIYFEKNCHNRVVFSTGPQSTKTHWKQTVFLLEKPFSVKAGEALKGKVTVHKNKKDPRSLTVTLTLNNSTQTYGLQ
UniProt Q14738, whole entry, looked up: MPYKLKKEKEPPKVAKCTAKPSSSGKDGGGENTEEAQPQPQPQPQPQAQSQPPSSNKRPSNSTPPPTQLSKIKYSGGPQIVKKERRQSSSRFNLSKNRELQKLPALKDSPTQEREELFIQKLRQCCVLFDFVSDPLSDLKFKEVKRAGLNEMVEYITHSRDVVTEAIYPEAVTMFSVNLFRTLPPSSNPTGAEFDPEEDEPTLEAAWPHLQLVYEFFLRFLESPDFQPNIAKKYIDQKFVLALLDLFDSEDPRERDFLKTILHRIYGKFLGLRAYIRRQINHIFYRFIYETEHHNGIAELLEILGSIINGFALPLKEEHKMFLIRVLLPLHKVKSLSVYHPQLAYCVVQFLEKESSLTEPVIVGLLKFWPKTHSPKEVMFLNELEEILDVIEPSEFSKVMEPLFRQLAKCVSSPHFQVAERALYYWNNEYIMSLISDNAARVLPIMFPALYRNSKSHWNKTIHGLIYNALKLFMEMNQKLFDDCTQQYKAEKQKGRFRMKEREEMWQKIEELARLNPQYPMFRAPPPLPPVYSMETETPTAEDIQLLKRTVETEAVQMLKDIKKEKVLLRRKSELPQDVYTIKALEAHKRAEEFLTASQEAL
UniProt P62136, whole entry, looked up: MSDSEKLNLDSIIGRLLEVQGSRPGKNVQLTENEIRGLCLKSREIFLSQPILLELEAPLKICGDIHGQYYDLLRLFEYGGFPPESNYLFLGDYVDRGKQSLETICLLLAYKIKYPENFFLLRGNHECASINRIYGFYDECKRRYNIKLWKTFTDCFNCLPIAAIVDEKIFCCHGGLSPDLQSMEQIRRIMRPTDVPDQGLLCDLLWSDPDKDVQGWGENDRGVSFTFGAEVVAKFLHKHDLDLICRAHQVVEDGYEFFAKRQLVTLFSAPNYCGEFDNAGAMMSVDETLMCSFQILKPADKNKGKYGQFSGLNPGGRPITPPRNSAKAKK
UniProt P49642: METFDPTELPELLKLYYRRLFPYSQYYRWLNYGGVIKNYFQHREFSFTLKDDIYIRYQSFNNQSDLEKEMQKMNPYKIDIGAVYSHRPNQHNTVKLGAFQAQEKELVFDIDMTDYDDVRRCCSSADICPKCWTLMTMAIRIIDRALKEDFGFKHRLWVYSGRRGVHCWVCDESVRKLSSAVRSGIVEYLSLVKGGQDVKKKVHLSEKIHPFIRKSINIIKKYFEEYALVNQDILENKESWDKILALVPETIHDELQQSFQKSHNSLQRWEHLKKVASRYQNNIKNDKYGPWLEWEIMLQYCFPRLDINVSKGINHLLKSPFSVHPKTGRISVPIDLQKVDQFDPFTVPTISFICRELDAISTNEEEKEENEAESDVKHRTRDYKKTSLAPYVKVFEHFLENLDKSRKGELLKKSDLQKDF
UniProt Q96C90: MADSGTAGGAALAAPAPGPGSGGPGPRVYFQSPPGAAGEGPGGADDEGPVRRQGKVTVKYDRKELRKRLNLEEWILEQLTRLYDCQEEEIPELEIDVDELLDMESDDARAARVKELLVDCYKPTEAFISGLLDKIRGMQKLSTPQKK
UniProt Q04759: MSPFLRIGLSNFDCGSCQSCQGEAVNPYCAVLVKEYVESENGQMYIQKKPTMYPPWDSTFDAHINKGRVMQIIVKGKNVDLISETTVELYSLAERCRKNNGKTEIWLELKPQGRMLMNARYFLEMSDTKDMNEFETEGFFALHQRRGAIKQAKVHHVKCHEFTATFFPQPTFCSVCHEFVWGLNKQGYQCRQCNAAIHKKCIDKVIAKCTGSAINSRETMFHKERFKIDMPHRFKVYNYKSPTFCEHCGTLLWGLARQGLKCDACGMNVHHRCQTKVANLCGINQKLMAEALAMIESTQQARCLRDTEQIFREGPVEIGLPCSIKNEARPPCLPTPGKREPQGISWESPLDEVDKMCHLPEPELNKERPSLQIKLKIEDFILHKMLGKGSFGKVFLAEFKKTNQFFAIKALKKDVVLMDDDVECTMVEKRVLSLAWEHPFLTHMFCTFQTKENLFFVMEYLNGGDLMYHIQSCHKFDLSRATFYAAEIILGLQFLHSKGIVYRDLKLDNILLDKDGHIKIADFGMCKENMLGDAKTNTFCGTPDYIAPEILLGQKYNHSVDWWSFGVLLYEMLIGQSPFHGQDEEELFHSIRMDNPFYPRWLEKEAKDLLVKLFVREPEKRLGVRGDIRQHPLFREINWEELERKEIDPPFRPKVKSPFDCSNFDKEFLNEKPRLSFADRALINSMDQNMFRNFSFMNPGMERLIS
UniProt P31323, whole entry, looked up: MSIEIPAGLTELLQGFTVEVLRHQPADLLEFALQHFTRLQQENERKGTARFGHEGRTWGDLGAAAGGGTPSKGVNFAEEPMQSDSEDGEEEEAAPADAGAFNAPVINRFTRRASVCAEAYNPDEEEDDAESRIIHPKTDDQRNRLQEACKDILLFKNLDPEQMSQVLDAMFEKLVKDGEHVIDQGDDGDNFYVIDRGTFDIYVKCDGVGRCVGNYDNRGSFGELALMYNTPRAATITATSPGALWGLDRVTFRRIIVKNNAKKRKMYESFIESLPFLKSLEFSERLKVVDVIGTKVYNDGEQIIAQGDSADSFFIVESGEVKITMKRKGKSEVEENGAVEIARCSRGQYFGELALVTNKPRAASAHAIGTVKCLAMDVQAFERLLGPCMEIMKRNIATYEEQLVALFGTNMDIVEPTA
UniProt Q13362, whole entry, looked up: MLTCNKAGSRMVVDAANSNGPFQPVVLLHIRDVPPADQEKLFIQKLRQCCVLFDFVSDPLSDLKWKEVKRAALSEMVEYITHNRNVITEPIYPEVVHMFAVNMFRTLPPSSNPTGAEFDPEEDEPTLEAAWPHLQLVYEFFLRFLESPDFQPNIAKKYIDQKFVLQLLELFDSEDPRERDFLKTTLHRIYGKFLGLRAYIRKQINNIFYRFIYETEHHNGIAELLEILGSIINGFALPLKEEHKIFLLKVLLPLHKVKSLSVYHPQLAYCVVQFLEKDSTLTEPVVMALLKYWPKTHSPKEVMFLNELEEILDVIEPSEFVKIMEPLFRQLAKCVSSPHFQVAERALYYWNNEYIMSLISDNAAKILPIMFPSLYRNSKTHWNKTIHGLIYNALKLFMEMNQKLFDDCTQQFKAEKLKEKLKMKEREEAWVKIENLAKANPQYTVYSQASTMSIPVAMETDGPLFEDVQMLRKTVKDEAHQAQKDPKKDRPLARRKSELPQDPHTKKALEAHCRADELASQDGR
UniProt Q99633: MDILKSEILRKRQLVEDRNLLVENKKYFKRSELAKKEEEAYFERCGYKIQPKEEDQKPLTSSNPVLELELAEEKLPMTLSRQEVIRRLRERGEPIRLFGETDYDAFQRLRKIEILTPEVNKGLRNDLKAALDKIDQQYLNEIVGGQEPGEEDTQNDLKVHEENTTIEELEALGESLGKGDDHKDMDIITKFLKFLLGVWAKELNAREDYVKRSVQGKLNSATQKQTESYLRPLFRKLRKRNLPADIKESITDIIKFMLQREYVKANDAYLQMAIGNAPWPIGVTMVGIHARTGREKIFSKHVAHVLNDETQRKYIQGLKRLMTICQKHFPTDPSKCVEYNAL
UniProt P50897: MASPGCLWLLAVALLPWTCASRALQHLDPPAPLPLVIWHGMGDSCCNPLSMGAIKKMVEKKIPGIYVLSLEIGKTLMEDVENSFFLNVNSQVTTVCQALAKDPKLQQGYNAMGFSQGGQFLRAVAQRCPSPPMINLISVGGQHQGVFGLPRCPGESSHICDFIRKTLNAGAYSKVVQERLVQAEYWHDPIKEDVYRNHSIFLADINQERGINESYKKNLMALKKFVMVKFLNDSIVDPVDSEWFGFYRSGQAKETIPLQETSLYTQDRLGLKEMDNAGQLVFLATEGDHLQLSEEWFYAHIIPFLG

What was measured:
Assay in all cases: log2 fold change, soluble protein after heating vs DMSO (PISA); higher = thermal stabilisation; K562 cells, 10 uM, 30 min; active = over 0.2 and 3.5 SD of the protein, either way, in both replicates (recomputed)
[1] = compound: CS(=O)(=O)c1ccc(-c2cnc(N)c(C(=O)Nc3ccccc3)n2)cc1
How it was run: (§1)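 Values are thermal stability changes relative to control samples and are taken from duplicates. They are stated as log2 fold changes. Before quantification by TMTpro 16plex LC-MS/MS with equalised channel sums, K562 cells at 2×10^6 cells/mL were treated with 10 μM compound for 30 min, heated in aliquots for 3 min across 48°C-58°C, pooled, extracted in PBS with 0.5% NP-40 at 4°C, and centrifuged at 21,000xg for 90 min to give the soluble supernatant.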

crizotinib = compound: C[C@@H](Oc1cc(-c2cnn(C3CCNCC3)c2)cnc1N)c1c(Cl)ccc(F)c1Cl [crizotinib]
How it was run: as §1

[2] = compound: C[C@@H]1COCCN1C2=NC(=NC(=C2)C3(CC3)S(=O)(=O)C)C4=C5C=CNC5=CC=C4
How it was run: as §1

[3] = compound: C[C@H](C1=CC=C(C=C1)C(=O)NC2=C3C=CNC3=NC=C2)N
How it was run: as §1

gandotinib = compound: Cc1cc(Nc2cc(CN3CCOCC3)c3nc(C)c(Cc4ccc(Cl)cc4F)n3n2)n[nH]1 [gandotinib]
How it was run: as §1

[4] = compound: Cc1cc(SCc2sc(-c3ccc(C(F)(F)F)cc3)nc2C)ccc1OCC(=O)O
How it was run: as §1

doramapimod = compound: Cc1ccc(-n2nc(C(C)(C)C)cc2NC(=O)Nc2ccc(OCCN3CCOCC3)c3ccccc23)cc1 [doramapimod]
How it was run: as §1

ispinesib = compound: Cc1ccc(C(=O)N(CCCN)[C@@H](c2nc3cc(Cl)ccc3c(=O)n2Cc2ccccc2)C(C)C)cc1 [ispinesib]
How it was run: as §1

bafetinib = compound: Cc1ccc(NC(=O)c2ccc(CN3CC[C@H](N(C)C)C3)c(C(F)(F)F)c2)cc1Nc1nccc(-c2cncnc2)n1 [bafetinib]
How it was run: as §1

[5] = compound: Cc1cccc(CC(=O)N2CCc3c2ccc(-c2cn(C)c4ncnc(N)c24)c3F)n1
How it was run: as §1

nilotinib = compound: Cc1cn(-c2cc(NC(=O)c3ccc(C)c(Nc4nccc(-c5cccnc5)n4)c3)cc(C(F)(F)F)c2)cn1 [nilotinib]
How it was run: as §1

[6] = compound: Cc1nc(Nc2n[nH]c3c2CN(C(=O)N[C@H](CN(C)C)c2ccccc2)C3(C)C)c2sccc2n1
How it was run: as §1

dasatinib = compound: Cc1nc(Nc2ncc(C(=O)Nc3c(C)cccc3Cl)s2)cc(N2CCN(CCO)CC2)n1 [dasatinib]
How it was run: as §1

[7] = compound: Cc1ncc(-c2ccnc(Nc3ccc(S(C)(=O)=O)cc3)n2)n1C(C)C
How it was run: as §1

[8] = compound: Cn1cc(-c2ccc3c(c2)CCN3C(=O)Cc2cccc(C(F)(F)F)c2)c2c(N)ncnc21
How it was run: as §1

[9] = compound: Cn1cc(-c2ccc3nnc(C(F)(F)c4ccc5ncccc5c4)n3n2)cn1
How it was run: as §1

tipifarnib = compound: Cn1cncc1[C@@](N)(c1ccc(Cl)cc1)c1ccc2c(c1)c(-c1cccc(Cl)c1)cc(=O)n2C [tipifarnib]
How it was run: as §1

mubritinib = compound: FC(F)(F)c1ccc(/C=C/c2nc(COc3ccc(CCCCn4ccnn4)cc3)co2)cc1 [mubritinib]
How it was run: as §1

duvelisib = compound: C[C@H](Nc1ncnc2nc[nH]c12)c1cc2cccc(Cl)c2c(=O)n1-c1ccccc1 [duvelisib]
How it was run: as §1

tozasertib = compound: Cc1cc(Nc2cc(N3CCN(C)CC3)nc(Sc3ccc(NC(=O)C4CC4)cc3)n2)n[nH]1 [tozasertib]
How it was run: as §1

Target | log2 fold change [1] | log2 fold change (crizotinib) | log2 fold change [2] | log2 fold change [3] | log2 fold change (gandotinib) | log2 fold change [4] | log2 fold change (doramapimod) | log2 fold change (ispinesib) | log2 fold change (bafetinib) | log2 fold change [5] | log2 fold change (nilotinib) | log2 fold change [6] | log2 fold change (dasatinib) | log2 fold change [7] | log2 fold change [8] | log2 fold change [9] | log2 fold change (tipifarnib) | log2 fold change (mubritinib) | log2 fold change (duvelisib) | log2 fold change (tozasertib)
PRKAB1 (UniProt Q9Y478) | inactive: 0.013 | active: -0.252 | inactive: 0.029 | inactive: -0.063 | inactive: -0.057 | inactive: 0.069 | inactive: 0.013 | inactive: -0.013 | inactive: -0.154 | inactive: 0.006 | inactive: -0.119 | inactive: -0.162 | inactive: -0.037 | inactive: -0.007 | inactive: 0.04 | inactive: -0.026 | inactive: 0.008 | inactive: -0.104 |  | 
PRMT8 (UniProt Q9NR22) | inactive: -0.046 | inactive: -0.03 | inactive: -0.043 | inactive: 0.024 | inactive: -0.047 | inactive: 0.045 | inactive: -0.021 | inactive: 0.13 | inactive: 0.002 | inactive: 0.032 | inactive: -0.036 | inactive: 0.048 | inactive: -0.064 | inactive: 0.02 | inactive: 0.064 | inactive: -0.066 | inactive: -0.136 | inactive: 0.035 |  | 
PRKCI (UniProt P41743) | inactive: 0.093 | inactive: -0.057 | inactive: -0.032 | inactive: -0.02 | inactive: 0.014 | inactive: 0.1 | inactive: -0.021 | inactive: -0.028 | inactive: -0.031 | inactive: 0.045 | inactive: 0.009 | inactive: -0.107 | inactive: -0.051 | inactive: -0.002 | inactive: -0.056 | inactive: 0.013 | inactive: -0.001 | inactive: 0.064 | inactive: 0.088 | inactive: 0.054
PROCR (UniProt Q9UNN8) | inactive: 0.108 | inactive: 0.205 | inactive: 0.08 | inactive: -0.145 | inactive: -0.084 | inactive: -0.238 | inactive: -0.074 |  | inactive: 0.097 | inactive: 0.057 | inactive: 0.086 | inactive: -0.021 | inactive: 0.034 | inactive: 0.041 | inactive: -0.01 |  | inactive: 0.004 |  | inactive: 0.105 | inactive: 0.037
PRKAR1B (UniProt P31321) | inactive: 0.137 | inactive: 0.132 | inactive: 0.071 | inactive: 0.123 | inactive: 0.095 | inactive: -0.011 | inactive: -0.03 | inactive: -0.072 | inactive: 0.132 | inactive: -0.015 | inactive: 0.062 | inactive: 0.012 | inactive: -0.013 | inactive: 0.097 | inactive: 0.018 | inactive: 0.126 | inactive: 0.147 | inactive: -0.286 |  | 
PRMT3 (UniProt O60678) | inactive: -0.067 | inactive: -0.137 | inactive: -0.002 | inactive: -0.058 | inactive: -0.156 | inactive: 0.111 | inactive: -0.037 | inactive: -0.02 | inactive: 0.048 | inactive: 0.034 | inactive: -0.155 | inactive: 0.011 | inactive: -0.153 | inactive: -0.02 | inactive: -0.044 | inactive: -0.004 | inactive: -0.126 | inactive: 0.081 |  | 
PPP2R5D (UniProt Q14738) | inactive: 0 | inactive: 0.042 | inactive: 0.086 | inactive: -0.035 | inactive: 0.011 | inactive: 0.088 | inactive: -0.033 | inactive: 0.064 | inactive: 0.013 | inactive: 0.052 | inactive: -0.056 | inactive: -0.005 | inactive: -0.08 | inactive: 0.089 | inactive: -0.045 | inactive: 0.025 | inactive: -0.066 | inactive: -0.02 | inactive: 0.015 | inactive: 0.121
PPP1CA (UniProt P62136) | inactive: 0.042 | inactive: 0.042 | inactive: 0.013 | inactive: -0.069 | inactive: 0.026 | inactive: -0.045 | inactive: -0.003 | inactive: 0.083 | inactive: -0.053 | inactive: -0.001 | inactive: -0.002 | inactive: -0.006 | inactive: 0.008 | inactive: -0.011 | inactive: 0.018 | inactive: 0.065 | inactive: 0.023 | inactive: 0.065 |  | 
PRIM1 (UniProt P49642) | inactive: 0.051 | inactive: -0.066 | inactive: 0.039 | inactive: 0.086 | inactive: -0.131 | inactive: 0.102 | inactive: 0.007 | inactive: -0.082 | inactive: 0.046 | inactive: 0.01 | inactive: -0.034 | inactive: -0.055 | inactive: -0.161 | inactive: -0.009 | inactive: -0.033 | inactive: 0.009 | inactive: -0.073 | inactive: 0.06 |  | 
PRKDC (UniProt P78527) | inactive: 0.005 | inactive: 0.018 | inactive: 0.051 | inactive: -0.074 | inactive: -0.063 | inactive: 0.021 | inactive: -0.053 | inactive: 0.059 | inactive: -0.02 | inactive: 0.035 | inactive: -0.035 | inactive: -0.017 |  | inactive: -0.004 | inactive: 0.036 | inactive: 0 | inactive: -0.044 | inactive: 0.033 | inactive: 0.004 | inactive: -0.002
PPP1R14B (UniProt Q96C90) | inactive: 0.016 | inactive: -0.162 | inactive: -0.211 | inactive: -0.002 |  | inactive: 0.272 | inactive: 0.072 | inactive: 0.016 | inactive: 0.04 |  | inactive: 0.01 | inactive: -0.044 | inactive: -0.225 | inactive: 0.034 | inactive: 0.236 | inactive: -0.016 | inactive: -0.189 | inactive: -0.016 | inactive: -0.068 | inactive: 0.176
PRKCQ (UniProt Q04759) | inactive: 0.021 | inactive: -0.238 | inactive: 0.037 | active: -0.374 | inactive: -0.165 | inactive: 0.023 | inactive: 0.038 | inactive: -0.106 | inactive: -0.027 | inactive: 0.024 | inactive: -0.051 | active: -0.821 | inactive: -0.171 | inactive: 0.003 | inactive: 0.069 | inactive: 0.031 | inactive: -0.134 | inactive: 0.12 |  | 
PRKAR2B (UniProt P31323) | inactive: -0.026 | inactive: -0.108 | inactive: -0.067 | inactive: -0.136 | inactive: -0.271 | inactive: 0.112 | inactive: 0.073 | inactive: -0.001 | inactive: -0.022 | inactive: 0.133 | inactive: 0.012 | active: -1.23 | inactive: -0.078 | inactive: -0.16 | inactive: 0.022 | inactive: -0.07 | inactive: -0.103 | inactive: 0.189 |  | 
PRKACA (UniProt P17612) | inactive: 0.009 | inactive: -0.088 | inactive: 0.046 | inactive: 0.043 | inactive: -0.105 | inactive: 0.112 | inactive: 0.019 | inactive: 0.053 | inactive: -0.044 | inactive: 0.107 | inactive: -0.038 | active: 0.71 | inactive: -0.107 | inactive: -0.051 | inactive: 0.01 | inactive: -0.117 | inactive: -0.036 | inactive: 0.066 |  | 
PPP2R5C isoform 4 (UniProt Q13362) | inactive: 0.031 | inactive: -0.021 | inactive: -0.177 | inactive: 0.029 | inactive: -0.011 | inactive: -0.01 | inactive: -0.06 | inactive: -0.036 | inactive: -0.032 | inactive: -0.019 | inactive: -0.05 | inactive: -0.025 | inactive: -0.058 | inactive: -0.008 | inactive: 0.037 | inactive: 0.052 | inactive: -0.093 | inactive: 0.095 |  | 
PRPF18 (UniProt Q99633) | inactive: 0.02 | inactive: -0.036 | inactive: -0.072 | inactive: -0.006 | inactive: 0.034 | inactive: -0.056 | inactive: -0.013 |  | inactive: -0.082 | inactive: -0.016 | inactive: -0.109 | inactive: -0.146 | inactive: 0.046 | inactive: -0.024 | inactive: 0.013 |  | inactive: 0.007 | inactive: 0.063 | inactive: -0.037 | inactive: -0.148
PPT1 (UniProt P50897) | inactive: 0.022 | active: -0.57 | inactive: -0.008 | inactive: -0.029 | inactive: -0.018 | inactive: 0.023 | inactive: -0.004 | active: -0.394 | active: -0.742 | inactive: 0.011 | inactive: 0.021 | inactive: 0.02 | inactive: 0 | inactive: -0.001 | inactive: 0.006 | inactive: 0.019 | inactive: 0.025 | inactive: 0.027 |  | 

A second format for part of the listing above:

| Target | log2 fold change [1] | log2 fold change (crizotinib) | log2 fold change [2] | log2 fold change [3] | log2 fold change (gandotinib) | log2 fold change [4] | log2 fold change (doramapimod) | log2 fold change (ispinesib) | log2 fold change (bafetinib) | log2 fold change [5] | log2 fold change (nilotinib) | log2 fold change [6] | log2 fold change (dasatinib) | log2 fold change [7] | log2 fold change [8] | log2 fold change [9] | log2 fold change (tipifarnib) | log2 fold change (mubritinib) | log2 fold change (duvelisib) | log2 fold change (tozasertib) |
| --- | --- | --- | --- | --- | --- | --- | --- | --- | --- | --- | --- | --- | --- | --- | --- | --- | --- | --- | --- | --- |
| PRKCI (UniProt P41743) | inactive: 0.093 | inactive: -0.057 | inactive: -0.032 | inactive: -0.02 | inactive: 0.014 | inactive: 0.1 | inactive: -0.021 | inactive: -0.028 | inactive: -0.031 | inactive: 0.045 | inactive: 0.009 | inactive: -0.107 | inactive: -0.051 | inactive: -0.002 | inactive: -0.056 | inactive: 0.013 | inactive: -0.001 | inactive: 0.064 | inactive: 0.088 | inactive: 0.054 |
| PPP2R5C isoform 4 (UniProt Q13362) | inactive: 0.031 | inactive: -0.021 | inactive: -0.177 | inactive: 0.029 | inactive: -0.011 | inactive: -0.01 | inactive: -0.06 | inactive: -0.036 | inactive: -0.032 | inactive: -0.019 | inactive: -0.05 | inactive: -0.025 | inactive: -0.058 | inactive: -0.008 | inactive: 0.037 | inactive: 0.052 | inactive: -0.093 | inactive: 0.095 |  |  |
